Measurements reported in publication PMC5756042, “Molecular Defects of the Disease-Causing Human Arrestin-1 C147F Mutant” (Investigative Ophthalmology & Visual Science, 2018).
Results are given in words; binding and its absence hold for the method and conditions named. Some binding calls cover weakened binding; strength is not graded here.

Amino acid sequences for entries named in this document (tags omitted).
UniProt P02699: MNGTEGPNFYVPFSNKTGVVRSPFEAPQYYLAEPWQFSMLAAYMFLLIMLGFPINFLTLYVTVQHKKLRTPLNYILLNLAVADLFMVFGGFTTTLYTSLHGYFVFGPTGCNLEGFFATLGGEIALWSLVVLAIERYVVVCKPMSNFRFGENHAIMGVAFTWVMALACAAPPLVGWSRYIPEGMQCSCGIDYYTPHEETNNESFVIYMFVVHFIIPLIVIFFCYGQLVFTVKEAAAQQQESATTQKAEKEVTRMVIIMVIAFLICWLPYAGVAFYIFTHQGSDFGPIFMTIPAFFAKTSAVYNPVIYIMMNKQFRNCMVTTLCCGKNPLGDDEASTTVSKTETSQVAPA
UniProt P10523: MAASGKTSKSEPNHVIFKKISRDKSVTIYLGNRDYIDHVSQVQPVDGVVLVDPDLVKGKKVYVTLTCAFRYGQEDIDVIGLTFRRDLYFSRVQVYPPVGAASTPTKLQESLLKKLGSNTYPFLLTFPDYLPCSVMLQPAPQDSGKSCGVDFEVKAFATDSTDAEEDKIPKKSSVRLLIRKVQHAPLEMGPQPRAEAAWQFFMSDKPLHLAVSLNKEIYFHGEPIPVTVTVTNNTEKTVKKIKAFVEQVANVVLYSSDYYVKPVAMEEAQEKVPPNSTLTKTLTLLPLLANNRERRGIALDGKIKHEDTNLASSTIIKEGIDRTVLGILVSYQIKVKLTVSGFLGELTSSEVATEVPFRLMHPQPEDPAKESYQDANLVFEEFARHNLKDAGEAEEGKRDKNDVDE

What was measured:
[1] = biological target: light-activated phosphorylated rhodopsin (bovine) (UniProt P02699); assay: radioligand binding; direct binding assay to P-Rh* after incubation of the arrestin-1 at 37°C for 24 hours; 1 nM arrestin-1; only the target purified
[2] = biological target: light-activated phosphorylated rhodopsin (bovine) (UniProt P02699); assay: radioligand binding; direct binding assay to P-Rh* after incubation of the arrestin-1 at 37°C for times up to 8 hours; 1 nM arrestin-1; only the target purified
[3] = biological target: light-activated phosphorylated rhodopsin (bovine) (UniProt P02699); assay: radioligand binding; direct binding assay to P-Rh* (5 minutes at 37°C) after 30 minutes of incubation of the arrestin-1 at temperatures from 0°C up to 42°C; only the target purified
[4] = biological target: light-activated phosphorylated rhodopsin (bovine) (UniProt P02699); assay: radioligand binding; direct binding assay: 1 nM radiolabelled arrestin-1 (50 fmol) with 0.3 μg P-Rh* or Rh* (0.22 μM) in 50 μL of 50 mM Tris-HCl pH 7.4, 100 mM potassium acetate, 1 mM EDTA, 1 mM dithiothreitol, 5 minutes at 37°C under room light; bound and free separated at 4°C on Sepharose 2B-CL; scintillation counting; nonspecific binding subtracted; only the target purified
[5] = biological target: light-activated phosphorylated rhodopsin (bovine) (UniProt P02699); assay: radioligand binding; direct binding assay to P-Rh* after incubation of the translated arrestin-1 for 1 or 2 hours at 42°C (control kept on ice); 1 nM arrestin-1; only the target purified

Measured: binding

wild-type human arrestin-1 (from UniProt P10523 1-405)
binds: all assays above
